{"source": "PubChem BioAssay AID1224830 – NIAID – 2016", "aim": "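Regulators of TLR4 signalling towards TNF-alpha in macrophage-like cells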 (primary screen)", "cell system": "human THP-1 monocytic leukaemia cells, TNF dual-luciferase reporter clone, PMA-differentiated to macrophage-like cells", "reagents": "siRNA pool against human genes, 50 nM", "time to read-out": "LPS for 4 h, given about 3 days after siRNA transfection", "conditions": "bacterial LPS (TLR4 ligand), 10 ng/ml", "read-out": "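TNF firefly reporter luminescence divided by renilla, normalised to the plate median, then turned into a robust z-score for each replicate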", "reading the numbers": "TNF reporter robust z-score: higher = stronger TNF reporter response to LPS", "call rule": "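a well is active when its z-score exceeds 2.8 or falls below -1.5; control wells carry no call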", "note": "Shown is one part, drawn at random, of about 18,000 reagents tested. Over the whole deposit, about 2,900 (16%) got an active call. 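Calls are made per well; low scores hint the gene aids the LPS response, high scores that it dampens it.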 Repeated entries: four replicate wells of each siRNA pool."}
{"target gene": "ZXDB", "TNF reporter robust z-score": 1.79, "Outcome": "inactive"}
{"target gene": "ZXDB", "TNF reporter robust z-score": 0.21, "Outcome": "inactive"}
{"target gene": "ZXDB", "TNF reporter robust z-score": 0.96, "Outcome": "inactive"}
{"target gene": "ZXDB", "TNF reporter robust z-score": -1.39, "Outcome": "inactive"}
{"target gene": "RGS9", "TNF reporter robust z-score": -0.5, "Outcome": "inactive"}
{"target gene": "RGS9", "TNF reporter robust z-score": -0.75, "Outcome": "inactive"}
{"target gene": "RGS9", "TNF reporter robust z-score": -1.66, "Outcome": "active"}
{"target gene": "RGS9", "TNF reporter robust z-score": -1.13, "Outcome": "inactive"}
{"target gene": "MDM2", "TNF reporter robust z-score": 2.36, "Outcome": "inactive"}
{"target gene": "MDM2", "TNF reporter robust z-score": 2.68, "Outcome": "inactive"}
{"target gene": "MDM2", "TNF reporter robust z-score": -0.31, "Outcome": "inactive"}
{"target gene": "MDM2", "TNF reporter robust z-score": -0.24, "Outcome": "inactive"}

Targets listed so far whose target name begins with Z or z (4):
{"target gene": "ZXDB", "TNF reporter robust z-score": 1.79, "Outcome": "inactive"}
{"target gene": "ZXDB", "TNF reporter robust z-score": 0.21, "Outcome": "inactive"}
{"target gene": "ZXDB", "TNF reporter robust z-score": 0.96, "Outcome": "inactive"}
{"target gene": "ZXDB", "TNF reporter robust z-score": -1.39, "Outcome": "inactive"}

Next results follow.
{"target gene": "IFNA14", "TNF reporter robust z-score": -0.87, "Outcome": "inactive"}
{"target gene": "IFNA14", "TNF reporter robust z-score": -0.63, "Outcome": "inactive"}
{"target gene": "IFNA14", "TNF reporter robust z-score": -1.25, "Outcome": "inactive"}
{"target gene": "IFNA14", "TNF reporter robust z-score": -0.66, "Outcome": "inactive"}
{"target gene": "PEMT", "TNF reporter robust z-score": 0.6, "Outcome": "inactive"}
{"target gene": "PEMT", "TNF reporter robust z-score": 0.88, "Outcome": "inactive"}
{"target gene": "PEMT", "TNF reporter robust z-score": 0.13, "Outcome": "inactive"}
{"target gene": "PEMT", "TNF reporter robust z-score": -0.34, "Outcome": "inactive"}
